Experimental data: PubChem BioAssay AID743172 (National Center for Advancing Translational Sciences (NCATS), 2013)
Where “and” joins values, the source holds several entries; their conditions need not be identical. Equal entries are not always repeated. The inconclusive results got no clear call from the source; some entries with a clear call stand among them for comparison. Where the call is inconclusive, the potency comes from a doubtful curve fit. Calls of active or inactive are those of the source. The call rests on the fitted dose curve; in most records, active means well fitted activation curve with a large enough effect; inconclusive means small, poorly fitted or top-dose-only effect; inactive means no such curve, though single readings can be large or run the other way.

experiment: Extended Characterization of HPGD Inhibitors: PGE2 Assay in LNCaP Cells; settings: PGE2 HTRF level, 16 h; series mostly up to 100 µM; PGE2 level, % of control (higher = increase): at the top concentration
From the text: The central role of HPGD is to inactivate prostaglandins such as prostaglandin E2 (PGE2) or prostaglandin D2 (PGD2). These prostaglandins are involved in a number of processes, including inflammation, differentiation, and cellular signaling, which makes HPGD an important target for pharmacological intervention. A number of prostaglandins of particular biological interest have been identified as substrates of HPGD. […] Over-production of PGE2 has been reported to promote tumor-associated neovascularization, cell proliferation, and tumor growth. […] In this orthogonal assay, we set out to measure if compounds were able to increase PGE2 production NIH Chemical Genomics Center [NCGC] NIH Molecular Libraries Probe Centers Network [MLPCN] MLPCN Grant: MH084681 Assay Submitter (PI): Structural Genomics Consortium
A549 cells, LNCaP cells or media were dispensed in 384-well plates (ProxiPlate-384 Plus, PerkinElmer, Shelton, CT) at 5,000 cells/9.9 uL/well using a CappAero384 multichannel pipette (Odense, Denmark). Separately on the plate, 10 uL of PGE2 calibration standards at a starting assay concentration of 5,000 pg/mL (1:2 dilution, 12-points, n = 1, prepared in media, Cisbio, Bedford, MA) were dispensed. Compounds (100 nL, final concentration range from 41.9 nM to 100 uM) were transferred using an ATS Acoustic Liquid Dispenser (EDC Biosystems, Fremont, CA). After being mixed using an automated liquid handler (CyBio, Jena, Germany), samples were incubated (37 deg C, 5% CO2, under a humidified atmosphere) for 16 hours. PGE2 labeled conjugates were added to each well, first 5 uL of PGE2-d2, followed by 5 uL of anti-PGE2-cryptate, centrifuged (1,500 rpm, 15 sec) and incubated (RT, protected from light) for 5 hours. Time-resolved fluorescence intensity (320 nm excitation, 615 and 665 nm emission) was measured using an Envision plate reader (PerkinElmer). Data was expressed as the ratio of 665 nm/615 nm emissions. Concentration (pg/mL) of samples were calculated from a 4-parameter logistic calibration curves of the PGE2 standards.

Row | Structure (SMILES) | PGE2 level, % of control (higher = increase) | Potency
1 | O=[N+]([O-])c1cccc(CSc2nc3ncc(Br)cc3[nH]2)c1 | inactive: 469% | –
2 | O=[N+]([O-])c1ccc(CSc2nc3ncc(Br)cc3[nH]2)cc1 | – | active: 2.22 µM
3 | Cc1cc(-c2nnc3n2CCCCCCC3)c(C)n1-c1ccccc1 | – | inconclusive: 11.1 µM [activator, full curve, poor fit]
4 | COC(=O)C1CCN(C(=O)c2ccc3c(c2)ncn3-c2cccc(C)c2)CC1 | – | inconclusive: 352 µM [activator, partial curve, poor fit]
5 | N#Cc1ccccc1CCc1nc2ncc(Br)cc2[nH]1 | – | inconclusive: 70.3 µM [activator, partial curve, poor fit]
6 | Cc1cccc(-n2cnc3cc(C(=O)N4CCC(Br)CC4)ccc32)c1 | – | inconclusive: 5.58 µM [activator, full curve, poor fit]
7 | Cc1cccc(-n2cnc3cc(C(=O)N4CCC(C(F)(F)F)CC4)ccc32)c1 | – | inconclusive: 44.3 µM [activator, partial curve, poor fit]
8 | Cc1cccc(-n2cnc3cc(C(=O)N4CCC(N5CCOCC5)CC4)ccc32)c1 | – | inconclusive: 3.52 µM [activator, full curve, poor fit]
9 | N#Cc1ccccc1CSc1nc2ncc(Br)cc2[nH]1 | – | inconclusive: 70.3 µM [activator, partial curve, poor fit] and inconclusive: 55.8 µM [activator, partial curve, poor fit] and active: 35.2 µM
10 | Fc1cccc(CSc2nc3ncc(Br)cc3[nH]2)c1 | – | inconclusive: 44.3 µM [activator, partial curve, poor fit]
11 | Cc1cccc(-n2cnc3cc(C(=O)N4CCN(C)CC4)ccc32)c1 | – | inconclusive: 17.6 µM [activator, full curve, poor fit]
12 | Cc1cccc(-n2cnc3cc(C(=O)NC4CCCC4)ccc32)c1 | – | inconclusive: 44.3 µM [activator, partial curve, poor fit]
13 | Cc1ccccc1CSc1nc2ncc(Br)cc2[nH]1 | – | active: 22.2 µM
14 | Cc1cccc(-n2cnc3cc(C(=O)N4CCCC(C(C)C)C4)ccc32)c1 (centres undefined) | – | inconclusive: 2.22 µM [activator, full curve, poor fit]
15 | Cc1cccc(-n2cnc3cc(C(=O)N4CCCC(C)(C)C4)ccc32)c1 | – | inconclusive: 4.43 µM [activator, full curve, poor fit]
16 | Cc1cc(-c2nnc3n2CCCCC3)c(C)n1-c1cccc(C(F)(F)F)c1 | – | inconclusive: 2.22 µM [activator, full curve, poor fit]
17 | N#Cc1ccccc1CNc1nc2ncc(Br)cc2[nH]1 | inactive: 143% | –
18 | CCOC(=O)c1ccc(-n2c(C)cc(-c3nnc4n3CCCCC4)c2C)cc1 | – | active: 14 µM
19 | Cc1cccc(-n2cnc3cc(C(=O)N4CCCC4)ccc32)c1 | – | active: 55.8 µM
20 | CCCCNC(=O)c1ccc2c(c1)ncn2-c1cccc(C)c1 | – | inconclusive: 88.4 µM [activator, partial curve, poor fit]

Single records, from the list above. Values in the order: PGE2 level, % of control (higher = increase) | Potency
Cc1cccc(-n2cnc3cc(C(=O)N4CCC(C(F)(F)F)CC4)ccc32)c1 is listed as – | inconclusive: 44.3 µM [activator, partial curve, poor fit]
Cc1cccc(-n2cnc3cc(C(=O)N4CCCC(C)(C)C4)ccc32)c1 is listed as – | inconclusive: 4.43 µM [activator, full curve, poor fit]
Cc1cc(-c2nnc3n2CCCCCCC3)c(C)n1-c1ccccc1 is listed as – | inconclusive: 11.1 µM [activator, full curve, poor fit]

Remaining list, next part.

Row | Structure (SMILES) | PGE2 level, % of control (higher = increase) | Potency
21 | Cc1cc(-c2nnc3n2CCCCCC3)c(C)n1-c1ccccc1 | – | inconclusive: 11.1 µM [activator, full curve, poor fit]
22 | CCCCn1cnc2cc(C(=O)N3CCCCC3)ccc21 | – | active: 4.43 µM
23 | c1ccc(-n2cc(-c3nnc4n3CCCCC4)cn2)cc1 | inactive: 147% | –
24 | O=C(c1ccc2c(c1)ncn2-c1ccccc1)N1CCCCC1 | – | active: 0.28 µM
25 | Cc1cc(-c2nnc3n2CCCCC3)c(C)n1-c1ccccn1 | – | inconclusive: 35.2 µM [activator, full curve, poor fit]
26 | O=C(c1ccc2c(c1)ncn2-c1ccc(C(F)(F)F)cc1)N1CCCCC1 | – | inconclusive: 2.8 µM [activator, full curve, poor fit]
27 | Cc1cccc(-n2cnc3cc(C(=O)N4CCC(C#N)CC4)ccc32)c1 | inactive: 132% | –
28 | Cc1cccc(-n2cnc3cc(C(=O)N4CCOCC4)ccc32)c1 | – | inconclusive: 4.43 µM [activator, full curve, poor fit]
29 | FC(F)(F)c1ccc(-c2nc(-c3nnc4n3CCCCC4)c(C(F)(F)F)o2)cc1 | inactive: 130% | –
30 | c1ccc(-n2cc(-c3nnc4n3CCCCC4)c3ccccc32)cc1 | – | inconclusive: 11.1 µM [activator, full curve, poor fit]
31 | c1ccc(-n2ccc(-c3nnc4n3CCCCC4)c2)cc1 | – | inconclusive: 88.4 µM [activator, partial curve, poor fit]
32 | Cc1cccc(-n2cnc3cc(C(=O)N4CCC(c5ccccc5)CC4)ccc32)c1 | inactive: 147% | –
33 | Cc1cccc(-n2cnc3cc(C(=O)NC(C)(C)C)ccc32)c1 | inactive: 115% | –
34 | Cc1cc(-c2nnc3n2CCCCC3)c(C)n1-c1ccncc1 | – | inconclusive: 11.1 µM [activator, full curve, poor fit]
35 | CC(C)(C)c1cccc(-n2cnc3cc(C(=O)N4CCCCC4)ccc32)c1 | – | inconclusive: 3.52 µM [activator, full curve, poor fit]
36 | Cc1cc(-c2nnc3n2CCC3)c(C)n1-c1ccccc1 | – | inconclusive: 88.4 µM [activator, partial curve, poor fit]
37 | Cc1cccc(-n2cnc3cc(C(=O)N4CCC(Cc5ccccc5)CC4)ccc32)c1 | inactive: 144% | –
38 | Cc1cccc(-n2cnc3cc(C(=O)N4CCCC(c5ccccc5)C4)ccc32)c1 (centres undefined) | – | inconclusive: 8.84 µM [activator, full curve, poor fit]
39 | Cc1cc(-c2nnc3n2CCCCC3)c(C)n1-c1ccc(C#N)cc1 | – | inconclusive: 1.4 µM [activator, full curve, poor fit]
